Test results: article PMC3032553, “Structural Basis for c-di-GMP-Mediated Inside-Out Signaling Controlling Periplasmic Proteolysis” (PLoS Biology, 2011)

Target: His6-tagged LapG (P. fluorescens)
Experiment: pull-down; His6-LapG bound to NiNTA resin, untagged LapD output domain variants added, 1 h at 4°C; 25 mM Tris-HCl pH 8.4, 75 mM NaCl, 25 mM KCl, 40 mM imidazole; eluates on SDS-PAGE (Coomassie; SYPRO Ruby for quantification); both purified

binding: no binding
B1: LapD^output W125E (domain or fragment, UniProt Q3KK31 22-151)
chain: SFMVSLESSRTQYVNQLRSHAQDAATALALSLTPNIDDPAMVELLVSSIFDSGYYSSIRVVDLKTDQTIVERNGIPAVTNVPDWFVKLIGLEPAGGDALVSRGEEQAARVEVVSHPMFALAKLWQSALGS

These are yes or no findings as the source states them, for the method shown.
